These are yes or no findings as the source states them, for the method shown. Binding seen in cells or lysates may run through a third protein. Here binding means that the protein was enriched with, or labelled near, the bait; the list need not be complete. Tags and fused reporters may be left off the sequences shown.
B1: IMPAIRED OOMYCETE SUSCEPTIBILITY 1 (IOS1), endogenous (protein, UniProt Q9C8I6 24-894)
chain: QDQSGFISLDCGSPRETSFREKTTNITYISDANFINTGVGGSIKQGYRTQFQQQTWNLRSFPQGIRNCYTLNLTIGDEYLIRANFLHGGYDDKPSTQFELYLGPNLWSTVTTTNETEASIFEMIHILTTDRLQICLVKTGNATPFISALELRKLMNTTYLTRQGSLQTFIRADVGATVNQGYRYGIDVFDRVWTPYNFGNWSQISTNQSVNINNDYQPPEIAMVTASVPTDPDAAMNISLVGVERTVQFYVFMHFAEIQELKSNDTREFNIMYNNKHIYGPFRPLNFTTSSVFTPTEVVADANGQYIFSLQRTGNSTLPPLLNAMEIYSVNLLPQQETDRKEVDAMMNIKSAYGVNKIDWEGDPCVPLDYKWSGVNCTYVDNETPKIISLDLSTSGLTGEILEFISDLTSLEVLDLSNNSLTGSVPEFLANMETLKLINLSGNELNGSIPATLLDKERRGSITLSIEGNTGLCSSTSCATTKKKKKNTVIAPVAASLVSVFLIGAGIVTFLILKRKKRTKLGLNPNSGTGTTPLHSRSHHGFEPPVIAKNRKLTYIDVVKITNNFERVLGRGGFGVVYYGVLNNEPVAVKMLTESTALGYKQFKAEVELLLRVHHKDLTCLVGYCEEGDKMSLIYEFMANGDLKEHLSGKRGPSILTWEGRLRIAAESAQGLEYLHNGCKPQIVHRDIKTTNILLNEKFQAKLADFGLSRSFPLGTETHVSTIVAGTPGYLDPEYYRTNWLTEKSDVFSFGVVLLELVTNQPVIDMKREKSHIAEWVGLMLSRGDINSIVDPKLQGDFDPNTIWKVVETAMTCLNPSSSRRPTMTQVVMDLKECLNMEMARNMGSRMTDSTNDSSIELSMNFTTELNPGAR
B2: AUTOINHIBITED Ca2+-ATPASE 10 (ACA10), endogenous (protein, UniProt Q9SZR1 1-1069)
chain: MSGQFNNSPRGEDKDVEAGTSSFTEYEDSPFDIASTKNAPVERLRRWRQAALVLNASRRFRYTLDLKREEDKKQMLRKMRAHAQAIRAAHLFKAAASRVTGIASPLPTPGGGDFGIGQEQIVSISRDQNIGALQELGGVRGLSDLLKTNLEKGIHGDDDDILKRKSAFGSNTYPQKKGRSFWRFVWEASQDLTLIILIVAAVASLALGIKTEGIEKGWYDGISIAFAVLLVIVVTATSDYRQSLQFQNLNEEKRNIRLEVTRDGRRVEISIYDIVVGDVIPLNIGDQVPADGVLVAGHSLAVDESSMTGESKIVQKNSTKHPFLMSGCKVADGNGTMLVTGVGVNTEWGLLMASVSEDNGGETPLQVRLNGVATFIGIVGLTVAGVVLFVLVVRYFTGHTKNEQGGPQFIGGKTKFEHVLDDLVEIFTVAVTIVVVAVPEGLPLAVTLTLAYSMRKMMADKALVRRLSACETMGSATTICSDKTGTLTLNEMTVVECYAGLQKMDSPDSSSKLPSAFTSILVEGIAHNTTGSVFRSESGEIQVSGSPTERAILNWAIKLGMDFDALKSESSAVQFFPFNSEKKRGGVAVKSPDSSVHIHWKGAAEIVLGSCTHYMDESESFVDMSEDKMGGLKDAIDDMAARSLRCVAIAFRTFEADKIPTDEEQLSRWELPEDDLILLAIVGIKDPCRPGVKNSVLLCQQAGVKVRMVTGDNIQTAKAIALECGILASDSDASEPNLIEGKVFRSYSEEERDRICEEISVMGRSSPNDKLLLVQSLKRRGHVVAVTGDGTNDAPALHEADIGLAMGIQGTEVAKEKSDIIILDDNFESVVKVVRWGRSVYANIQKFIQFQLTVNVAALVINVVAAISAGEVPLTAVQLLWVNLIMDTLGALALATEPPTDHLMDRAPVGRREPLITNIMWRNLFIQAMYQVTVLLILNFRGISILHLKSKPNAERVKNTVIFNAFVICQVFNEFNARKPDEINIFRGVLRNHLFVGIISITIVLQVVIVEFLGTFASTTKLDWEMWLVCIGIGSISWPLAVIGKLIPVPETPVSQYFRINRWRRNSSG
B3: SYNTAXIN OF PLANTS 71 (SYP71), endogenous (protein, UniProt Q9SF29 1-266)
chain: MTVIDILTRVDSICKKYDKYDVDKQREANISGDDAFARLYGAFETQIETALEKAELVTKEKNRAAAVAMNAEIRRTKARLSEEVPKLQRLAVKRVKGLTTEELAARNDLVLALPARIEAIPDGTAGGPKSTSAWTPSSTTSRPDIKFDSDGRFDDDYFQESNESSQFRQEYEMRKIKQEQGLDMISEGLDALKNMASDMNEELDRQVPLMDEIDTKVDRATSDLKNTNVRLKDTVNQLRSSRNFCIDIVLLCIVLGIAAYLYNVLK
B4: … INDUCED REACTION 4 (HIR4), endogenous (protein, UniProt Q9FHM7 1-292)
chain: MGNTYCILGGCIEQASVGVVERWGRFEHIAEPGCHFFNPLAGQWLAGVLSTRIKSLDVKIETKTKDNVFVQLVCSIQYRVVKASADDAFYELQNPKEQIQAYVFDVVRALVPMMTLDALFEQKGEVAKSVLEELEKVMGAYGYSIEHILMVDIIPDPSVRKAMNEINAAQRLQLASVYKGEAEKILQVKRAEAEAEAKYLGGVGVARQRQAITDGLRENILNFSDKVEGTSAKEVMDLIMITQYFDTIRDLGNSSKNTTVFLPHGPGHVRDISDQIRNGMMEAAASTQVNDV

The chains behind the UniProt entries cited, without tags or fusion partners. Where a name states a change or a piece, a line headed by the entry shows the natural chain unless it says otherwise.
UniProt Q9M8T0: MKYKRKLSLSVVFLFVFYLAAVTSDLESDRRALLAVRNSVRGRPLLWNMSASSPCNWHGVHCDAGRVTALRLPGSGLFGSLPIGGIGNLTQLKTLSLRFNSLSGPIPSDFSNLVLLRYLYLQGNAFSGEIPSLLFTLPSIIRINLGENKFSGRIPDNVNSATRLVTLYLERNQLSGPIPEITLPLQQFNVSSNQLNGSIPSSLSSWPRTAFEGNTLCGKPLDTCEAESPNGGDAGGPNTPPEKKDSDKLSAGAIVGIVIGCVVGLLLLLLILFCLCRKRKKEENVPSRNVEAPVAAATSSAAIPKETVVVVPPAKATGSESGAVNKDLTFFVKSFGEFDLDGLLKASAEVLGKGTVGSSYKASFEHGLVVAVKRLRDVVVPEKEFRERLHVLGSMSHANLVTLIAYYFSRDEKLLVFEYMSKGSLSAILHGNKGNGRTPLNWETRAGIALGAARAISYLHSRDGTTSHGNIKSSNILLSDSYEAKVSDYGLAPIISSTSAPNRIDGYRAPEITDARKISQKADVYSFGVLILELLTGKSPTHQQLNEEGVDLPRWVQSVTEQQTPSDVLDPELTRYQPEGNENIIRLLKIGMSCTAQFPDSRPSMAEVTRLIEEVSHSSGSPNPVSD
UniProt Q9M2D8: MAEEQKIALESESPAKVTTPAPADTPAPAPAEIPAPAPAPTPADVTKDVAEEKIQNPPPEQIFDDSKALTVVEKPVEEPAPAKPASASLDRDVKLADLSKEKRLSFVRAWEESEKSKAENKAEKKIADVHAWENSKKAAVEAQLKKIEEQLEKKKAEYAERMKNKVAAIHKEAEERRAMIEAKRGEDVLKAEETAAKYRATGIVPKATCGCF
UniProt Q9FIJ0: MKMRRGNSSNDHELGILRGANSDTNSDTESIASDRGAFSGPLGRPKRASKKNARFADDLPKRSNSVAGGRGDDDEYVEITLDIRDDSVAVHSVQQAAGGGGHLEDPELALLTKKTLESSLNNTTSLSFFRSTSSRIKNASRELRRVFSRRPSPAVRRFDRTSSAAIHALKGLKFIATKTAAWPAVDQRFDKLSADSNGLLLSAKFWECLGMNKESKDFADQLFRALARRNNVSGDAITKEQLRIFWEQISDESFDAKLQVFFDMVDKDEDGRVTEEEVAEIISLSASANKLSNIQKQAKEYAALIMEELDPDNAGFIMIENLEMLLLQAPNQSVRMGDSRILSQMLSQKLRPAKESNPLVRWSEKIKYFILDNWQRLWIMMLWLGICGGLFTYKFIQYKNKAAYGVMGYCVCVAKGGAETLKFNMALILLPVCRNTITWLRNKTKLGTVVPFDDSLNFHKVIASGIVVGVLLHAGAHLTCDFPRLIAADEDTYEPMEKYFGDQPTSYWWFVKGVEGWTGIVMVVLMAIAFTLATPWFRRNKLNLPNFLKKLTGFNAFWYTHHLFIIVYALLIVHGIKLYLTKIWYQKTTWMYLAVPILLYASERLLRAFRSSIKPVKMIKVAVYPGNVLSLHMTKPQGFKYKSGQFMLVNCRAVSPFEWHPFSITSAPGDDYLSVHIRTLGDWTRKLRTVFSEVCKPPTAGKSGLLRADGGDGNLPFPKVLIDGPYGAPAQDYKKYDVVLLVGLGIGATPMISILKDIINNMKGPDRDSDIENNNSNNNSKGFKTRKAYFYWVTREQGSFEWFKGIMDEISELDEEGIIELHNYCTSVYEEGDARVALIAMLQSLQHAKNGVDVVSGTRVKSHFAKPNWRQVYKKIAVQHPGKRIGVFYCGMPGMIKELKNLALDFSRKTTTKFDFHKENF

Each molecule was assayed against … SENSING 2 fused to GFP (FLS2-GFP) (Arabidopsis thaliana) (UniProt Q9FL28) (assay: affinity purification with mass spectrometry; IP of FLS2-GFP from the Arabidopsis pFLS2:FLS2-GFP line with anti-GFP magnetic beads, LC-MS/MS of the precipitate).
With “QIAN SHOU KINASE 1 (QSK1), endogenous (from UniProt Q9M8T0)” the binding was “binds”.
With “REMORIN 1.2 (REM1.2), endogenous (from UniProt Q9M2D8)” the binding was “binds”.
With “RESPIRATORY BURST OXIDASE HOMOLOG D (RBOHD), endogenous (from UniProt Q9FIJ0 1-921) (enzyme)” the binding was “binds”.
In the case of B1, the binding is reported as “binds”.
For B2, the binding was “binds”.
With B3 the binding was “binds”.
B4 was tested, and the binding was “binds”.
